Laboratory results taken from paper PMC11039992.
Numbering of substitutions follows the chain as printed. No constants are given. Whether binding was seen depends on the method and setting. Binding seen in cells or lysates may run through a third protein. Here binding means that the protein was enriched with, or labelled near, the bait; the list need not be complete. For some assays here: No binding means not detected with the bait.

The chains behind the UniProt entries cited, without tags or fusion partners.
UniProt Q8TBF4: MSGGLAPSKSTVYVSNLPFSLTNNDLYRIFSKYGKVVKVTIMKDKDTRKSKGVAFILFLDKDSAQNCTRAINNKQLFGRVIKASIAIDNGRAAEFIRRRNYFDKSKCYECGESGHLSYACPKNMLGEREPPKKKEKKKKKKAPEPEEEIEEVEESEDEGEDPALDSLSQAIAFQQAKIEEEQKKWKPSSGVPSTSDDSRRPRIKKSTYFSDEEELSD
UniProt P38432: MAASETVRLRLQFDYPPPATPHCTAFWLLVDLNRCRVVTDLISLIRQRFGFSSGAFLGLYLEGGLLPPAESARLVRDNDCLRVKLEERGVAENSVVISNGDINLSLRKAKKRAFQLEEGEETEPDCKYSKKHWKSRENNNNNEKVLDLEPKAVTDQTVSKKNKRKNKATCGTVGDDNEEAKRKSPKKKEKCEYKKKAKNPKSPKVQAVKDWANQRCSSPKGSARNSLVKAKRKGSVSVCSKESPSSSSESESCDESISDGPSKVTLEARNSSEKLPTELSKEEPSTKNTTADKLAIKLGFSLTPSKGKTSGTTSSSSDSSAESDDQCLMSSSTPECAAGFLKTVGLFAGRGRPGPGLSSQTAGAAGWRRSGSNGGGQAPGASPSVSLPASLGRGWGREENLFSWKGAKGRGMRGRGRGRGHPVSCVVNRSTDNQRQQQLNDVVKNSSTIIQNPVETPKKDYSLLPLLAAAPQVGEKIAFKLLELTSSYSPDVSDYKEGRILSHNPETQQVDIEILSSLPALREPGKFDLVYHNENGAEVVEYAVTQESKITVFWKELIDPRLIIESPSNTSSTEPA

Experiments:
Experiment in all cases: proximity labelling; BioID: N-terminally MAC-tagged bait in Flp-In T-REx 293 cells, induced with 2 μg/ml tetracycline and 50 μM biotin for 24 h; three independent replicates; mass spectrometry
[1] = biological target: T1, MAC-RBM41-(1–258) (human) (UniProt Q96IZ5)
T1 sequence: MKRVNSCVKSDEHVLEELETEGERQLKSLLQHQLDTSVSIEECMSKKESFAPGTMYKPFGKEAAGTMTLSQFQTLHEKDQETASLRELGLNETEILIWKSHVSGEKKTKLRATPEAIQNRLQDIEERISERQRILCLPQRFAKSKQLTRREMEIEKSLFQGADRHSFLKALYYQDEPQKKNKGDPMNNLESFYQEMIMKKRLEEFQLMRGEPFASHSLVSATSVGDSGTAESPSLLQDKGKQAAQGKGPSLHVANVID

[2] = biological target: T2, MAC-RBM41-WT (human) (UniProt Q96IZ5)
T2 sequence: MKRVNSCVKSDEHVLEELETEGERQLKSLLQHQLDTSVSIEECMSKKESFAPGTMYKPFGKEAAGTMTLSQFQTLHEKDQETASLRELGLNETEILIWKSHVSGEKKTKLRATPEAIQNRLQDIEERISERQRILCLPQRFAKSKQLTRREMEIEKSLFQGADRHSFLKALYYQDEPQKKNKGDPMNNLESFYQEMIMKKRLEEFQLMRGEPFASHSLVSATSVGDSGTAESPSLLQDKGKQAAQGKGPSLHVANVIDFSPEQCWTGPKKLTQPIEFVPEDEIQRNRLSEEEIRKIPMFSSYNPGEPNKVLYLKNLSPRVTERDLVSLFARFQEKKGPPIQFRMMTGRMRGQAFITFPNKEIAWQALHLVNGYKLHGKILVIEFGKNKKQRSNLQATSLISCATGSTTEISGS

[3] = biological target: T3, MAC-RBM41-Y312A (human) (UniProt Q96IZ5)
T3 sequence: T2 sequence with Y312A

[4] = biological target: T4, MAC-RBM41-F354A (human) (UniProt Q96IZ5)
T4 sequence: T2 sequence with F354A

[5] = biological target: T5, MAC-U11/U12-65K (human) (UniProt Q96LT9)
T5 sequence: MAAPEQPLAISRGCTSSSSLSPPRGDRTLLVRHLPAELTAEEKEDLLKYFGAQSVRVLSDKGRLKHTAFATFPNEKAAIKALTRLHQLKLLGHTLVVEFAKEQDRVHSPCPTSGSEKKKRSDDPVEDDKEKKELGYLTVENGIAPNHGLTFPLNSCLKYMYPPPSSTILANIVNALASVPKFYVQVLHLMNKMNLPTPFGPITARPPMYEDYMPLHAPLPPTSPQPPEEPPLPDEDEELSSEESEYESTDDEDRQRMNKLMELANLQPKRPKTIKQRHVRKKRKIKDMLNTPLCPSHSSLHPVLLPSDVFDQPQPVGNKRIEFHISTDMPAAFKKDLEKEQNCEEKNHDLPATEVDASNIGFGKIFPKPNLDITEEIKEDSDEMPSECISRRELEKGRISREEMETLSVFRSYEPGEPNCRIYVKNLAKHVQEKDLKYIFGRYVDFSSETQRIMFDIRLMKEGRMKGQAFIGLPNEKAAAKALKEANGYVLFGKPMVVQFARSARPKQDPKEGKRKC

[6] = biological target: T6, MAC-RBM41-Y312A + F354A (human) (UniProt Q96IZ5)
T6 sequence: T2 sequence with Y312A, F354A

[7] = biological target: T7, MAC-RBM41-(259–413) (human) (UniProt Q96IZ5)
T7 sequence: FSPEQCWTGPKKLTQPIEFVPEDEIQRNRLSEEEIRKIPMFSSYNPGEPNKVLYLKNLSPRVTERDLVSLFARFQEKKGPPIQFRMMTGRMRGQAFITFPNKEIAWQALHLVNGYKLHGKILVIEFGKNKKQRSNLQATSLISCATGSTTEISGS

[8] = biological target: T8, MAC-RBM41-Q352A (human) (UniProt Q96IZ5)
T8 sequence: T2 sequence with Q352A

Substance	binding [1]	binding [2]	binding [3]	binding [4]	binding [5]	binding [6]	binding [7]	binding [8]
U11/U12-31K (ZCRB1) (from UniProt Q8TBF4 1-217)	no binding	binds	no binding	no binding	binds	no binding	binds	binds
coilin (from UniProt P38432 1-576)	–	binds	–	–	binds	–	binds	–
